# Data source: PubChem BioAssay AID1259254 (NCATS, 2017)
# Aim: 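Gene knock-downs that lead to re-replication, shown by excess G2 DNA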 (primary screen)
# System: human HCT116 colorectal cancer cells
# Reagent: single siRNA against human genes
# Time to read-out: 3 days
# Detection: 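Imaged Hoechst DNA stain sorts each cell into a cycle phase by DNA amount; per plate, G2 fraction set to 0% for non-targeting and 100% for GMNN siRNA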
# Direction: G2 robust z-score and G2 cells, % of GMNN control: higher = more G2 cells, more excess DNA replication; raw share of cells in G2: higher = larger share of cells with G2 DNA content
# Hit rule: 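Active siRNAs have a G2 robust z of 5 or more median absolute deviations over the median, which in these data means about 38% or higher of GMNN control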
# This is one part, drawn at random, of about 59,000 deposited reagents. Over the whole deposit, about 1,550 (2.6%) got an active call. 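G2 share is only a proxy for re-replication; each gene was hit by three separate siRNAs, and active genes were retested.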 The raw values are shown without normalisation. The numbers tell different reagents against one gene apart. No sequences are given here. The record does not give: the amount of reagent.
gene,reagent no.,G2 robust z-score,"G2 cells, % of GMNN control",raw share of cells in G2 (%),activity call
SAC3D1 (SAC3 domain containing 1),1,0.831,8.82,6.03,inactive
SAC3D1 (SAC3 domain containing 1),2,-0.72,-2.1,3.05,inactive
SAC3D1 (SAC3 domain containing 1),3,-0.429,-0.0477,4.53,inactive
MTIF2 (mitochondrial translational initiation factor 2),1,0.318,5.21,7.37,inactive
MTIF2 (mitochondrial translational initiation factor 2),2,0.424,5.95,5.16,inactive
MTIF2 (mitochondrial translational initiation factor 2),3,-0.582,-1.13,5.02,inactive
HIPK2 (homeodomain interacting protein kinase 2),1,-0.408,0.0965,5.62,inactive
HIPK2 (homeodomain interacting protein kinase 2),2,-0.636,-1.51,4.64,inactive
HIPK2 (homeodomain interacting protein kinase 2),3,-0.301,0.847,3.95,inactive
HIPK2 (homeodomain interacting protein kinase 2),4,0.286,4.98,5.49,inactive
HIPK2 (homeodomain interacting protein kinase 2),5,-0.877,-3.21,1.99,inactive
HIPK2 (homeodomain interacting protein kinase 2),6,0.408,5.84,4.51,inactive
SLC34A1,1,-0.497,-0.528,5.5,inactive
SLC34A1,2,1.08,10.6,8.17,inactive
SLC34A1,3,-0.234,1.32,4.4,inactive
RCAN1 (regulator of calcineurin 1),1,0.222,4.53,6.58,inactive
RCAN1 (regulator of calcineurin 1),2,1.3,12.1,9.42,inactive
RCAN1 (regulator of calcineurin 1),3,1.55,13.9,8.87,inactive
MED23 (mediator complex subunit 23),1,1.17,11.2,10.4,inactive
MED23 (mediator complex subunit 23),2,-0.847,-2.99,2.69,inactive
MED23 (mediator complex subunit 23),3,-1.14,-5.06,1.56,inactive
OR4N4 (olfactory receptor family 4 subfamily N member 4),1,0.116,3.79,5.02,inactive
OR4N4 (olfactory receptor family 4 subfamily N member 4),2,1.69,14.9,8.8,inactive
OR4N4 (olfactory receptor family 4 subfamily N member 4),3,0.976,9.84,6.26,inactive
CFTR (CF transmembrane conductance regulator),1,0.0534,3.34,6.51,inactive
CFTR (CF transmembrane conductance regulator),2,-0.605,-1.29,4.35,inactive
CFTR (CF transmembrane conductance regulator),3,3.26,25.9,14.5,inactive

8 consecutive records already listed:
gene,reagent no.,G2 robust z-score,"G2 cells, % of GMNN control",raw share of cells in G2 (%),activity call
HIPK2 (homeodomain interacting protein kinase 2),2,-0.636,-1.51,4.64,inactive
HIPK2 (homeodomain interacting protein kinase 2),3,-0.301,0.847,3.95,inactive
HIPK2 (homeodomain interacting protein kinase 2),4,0.286,4.98,5.49,inactive
HIPK2 (homeodomain interacting protein kinase 2),5,-0.877,-3.21,1.99,inactive
HIPK2 (homeodomain interacting protein kinase 2),6,0.408,5.84,4.51,inactive
SLC34A1,1,-0.497,-0.528,5.5,inactive
SLC34A1,2,1.08,10.6,8.17,inactive
SLC34A1,3,-0.234,1.32,4.4,inactive

Next entries follow.
gene,reagent no.,G2 robust z-score,"G2 cells, % of GMNN control",raw share of cells in G2 (%),activity call
ELF4 (E74 like ETS transcription factor 4),1,-1.05,-4.45,3.62,inactive
ELF4 (E74 like ETS transcription factor 4),2,0.541,6.78,7.84,inactive
ELF4 (E74 like ETS transcription factor 4),3,-0.856,-3.06,2.57,inactive
TMX1 (thioredoxin related transmembrane protein 1),1,2.48,20.4,12.3,inactive
TMX1 (thioredoxin related transmembrane protein 1),2,1.26,11.8,8.48,inactive
TMX1 (thioredoxin related transmembrane protein 1),3,0.491,6.42,8.1,inactive
GAS2L3 (growth arrest specific 2 like 3),1,-0.314,0.756,3.92,inactive
GAS2L3 (growth arrest specific 2 like 3),2,0.357,5.48,5.16,inactive
GAS2L3 (growth arrest specific 2 like 3),3,0.877,9.14,6.04,inactive
CYTOR (cytoskeleton regulator RNA),1,0.464,6.23,6.59,inactive
CYTOR (cytoskeleton regulator RNA),2,1.33,12.3,7,inactive
CYTOR (cytoskeleton regulator RNA),3,-0.0113,2.89,2.66,inactive
CDKL3 (cyclin dependent kinase like 3),1,-0.593,-1.2,5.21,inactive
CDKL3 (cyclin dependent kinase like 3),2,3.23,25.7,14.5,inactive
CDKL3 (cyclin dependent kinase like 3),3,0.0818,3.54,4.82,inactive
LINC00381 (long intergenic non-protein coding RNA 381),1,0.162,4.11,4.35,inactive
LINC00381 (long intergenic non-protein coding RNA 381),2,0.249,4.72,5.56,inactive
LINC00381 (long intergenic non-protein coding RNA 381),3,2.33,19.4,10.4,inactive
SDS (serine dehydratase),1,-1.27,-5.95,3.11,inactive
SDS (serine dehydratase),2,2.29,19.1,10,inactive
SDS (serine dehydratase),3,3.86,30.1,18.3,inactive
CCNJ (cyclin J),1,-0.698,-1.94,2.91,inactive
CCNJ (cyclin J),2,-0.191,1.62,4.95,inactive
CCNJ (cyclin J),3,3.09,24.7,11.4,inactive
TK2 (thymidine kinase 2),1,-0.983,-3.95,4.3,inactive
TK2 (thymidine kinase 2),2,-0.677,-1.79,4.81,inactive
TK2 (thymidine kinase 2),3,-0.708,-2.02,3.31,inactive
SYNPO2 (synaptopodin 2),1,0.127,3.86,7.8,inactive
SYNPO2 (synaptopodin 2),2,-0.867,-3.13,3.56,inactive
SYNPO2 (synaptopodin 2),3,2.22,18.6,12.5,inactive
MUC22 (mucin 22),1,-0.562,-0.986,3.7,inactive
MUC22 (mucin 22),2,-0.391,0.215,3.29,inactive
MUC22 (mucin 22),3,-0.255,1.17,3.6,inactive
ARFIP2 (ARF interacting protein 2),1,0.607,7.24,6.59,inactive
ARFIP2 (ARF interacting protein 2),2,-0.798,-2.64,3.12,inactive
ARFIP2 (ARF interacting protein 2),3,0.0986,3.66,7.82,inactive
SCML2 (Scm polycomb group protein like 2),1,-0.7,-1.96,4.84,inactive
SCML2 (Scm polycomb group protein like 2),2,3.1,24.8,11.9,inactive
SCML2 (Scm polycomb group protein like 2),3,3.43,27.1,17.2,inactive
RPS4X (ribosomal protein S4 X-linked),1,3.74,29.3,17.4,inactive
RPS4X (ribosomal protein S4 X-linked),2,3.58,28.1,15.3,inactive
RPS4X (ribosomal protein S4 X-linked),3,0.487,6.39,5.66,inactive
